The other results are listed elsewhere or left out.
Test system: T1, CTL2-GFP (C. trachomatis L2/434/Bu, GFP-expressing)
T1 construct: L2/434/Bu, GFP-expressing
Set-up: species or system HeLa; Intracellular C. trachomatis growth in HeLa cells, bulk GFP fluorescence relative to DMSO
Settings: bulk GFP, single well; 28.5 h, 10 µM; inhibitor

| SMILES | % of control remaining |
| --- | --- |
| CCC(=O)NCc1ccc(-c2cc(CN(C)C)n(C)n2)cc1 [CBK281668] | 116.385% |
| CN(C)S(=O)(=O)Nc1ccccc1C(N)=O [CBK264382] | 107.304% |
| Cc1ccc(S(=O)(=O)Nc2sc3c(c2C(=O)N2CCN(C)CC2)CCCC3)cc1[N+](=O)[O-] [CBK028650] | 113.672% |
| O=S(=O)(Nc1cccc(-c2nnn[nH]2)c1)c1ccc(Br)s1 [CBK160377] | 115.946% |
| O=C(Oc1ccccc1)c1cc(Cl)cnc1Cl [CBK090320] | 92.9464% |
| CN(C)S(=O)(=O)N(CC(=O)Nc1ccccc1C(F)(F)F)c1ccccc1 [CBK268665] | 118.102% |
| Oc1ccc(-n2cc(-c3ccccc3C(F)(F)F)nn2)cc1 [CBK112971] | 101.221% |
| Cc1n[nH]c(NC(=O)/C=C/C(=O)O)c1-c1ccc(F)cc1 [CBK287068] | 95.5529% |
| C=Cn1cc(CN2CCCC(c3cc4cccnc4[nH]3)C2)c(C)n1 (stereo not shown) [CBK284944] | 75.7041% |
| COc1ccc([C@H]2CN(C(=O)c3ccccc3)[C@@H]3CCN(Cc4cccs4)C[C@H]23)cc1 [CBK285582] | 81.6503% |
| COc1ccc2[nH]c3c(c2c1)CCNC31CCN(CCCN2C(=O)C3CCCCC3C2=O)C1 (stereo not shown) [CBK059518] | 261.082% |
| O=C(Cc1ccc(-c2ccccc2)cc1)N1CCC2(CC1)Nc1ccccc1S(=O)(=O)N2 [CBK286189] | 128.936% |
| COCC(C)NC(=O)c1cnn2c(C(F)(F)F)cc(-c3cccs3)nc12 (stereo not shown) [CBK307417] | 143.237% |
| O=C1OC(c2ccccc2)=C/C1=C1/C(=O)Nc2ccccc21 [CBK115375] | 119.514% |
| COCC(=O)Nc1cc(OC)c(Cl)cc1OC [CBK264448] | 134.2% |
| Cc1ccc(Oc2ccc(CNC(=O)c3sc4nc[nH]c(=O)c4c3C)cc2)cc1 [CBK285857] | 114.414% |
| O=C(NCC1CCOCC1)c1cc(-c2cccnc2)cnc1NCc1ccc2c(c1)OCO2 [CBK154825] | 134.849% |
| O=c1[nH]c(-c2ccccc2)nc2c1CN(Cc1cccs1)CC2 [CBK282330] | 129.802% |
| Cc1noc(C)c1C(=O)N1CCC[C@@H](C(=O)c2ccccc2F)C1 [CBK282249] | 113.615% |
| O=C(Nc1nonc1-c1nc2ccccc2n1CCOC(=O)c1ccc(F)cc1)c1ccc(F)cc1 [CBK062653] | 120.003% |
| Cn1cc(-c2ncc(OCCOc3ccccc3)nc2N)cn1 [CBK145171] | 99.9668% |
| COc1ccccc1N1CCN(CCC(=O)Nc2ccc(Br)c(C)c2)CC1 [CBK264218] | 109.71% |
| CCN(CC)CCOc1cc(=O)oc2ccccc12 [CBK022747C] | 130.022% |
| COc1ccccc1C(=O)Cn1c(=O)n(S(=O)(=O)c2ccccc2)c2ccccc21 [CBK106497] | 162.312% |
| CC(C)NC(=O)Cn1nnc(-c2cccc(C(F)(F)F)c2)n1 [CBK304275] | 74.3939% |

3 compounds from above, ordered by molecular weight, rising.

| SMILES | % of control remaining |
| --- | --- |
| COCC(=O)Nc1cc(OC)c(Cl)cc1OC [CBK264448] | 134.2% |
| CCN(CC)CCOc1cc(=O)oc2ccccc12 [CBK022747C] | 130.022% |
| COCC(C)NC(=O)c1cnn2c(C(F)(F)F)cc(-c3cccs3)nc12 (stereo not shown) [CBK307417] | 143.237% |

(list continues)

| SMILES | % of control remaining |
| --- | --- |
| O=C(CC(C(=O)O)n1cncn1)c1ccc(Br)cc1 (stereo not shown) [CBK269305] | 111.628% |
| N#Cc1cccc(C(=O)N2CCN(c3ncccn3)CC2)c1 [CBK144498] | 111.639% |
| O=C(c1cc2cc(F)ccc2[nH]1)N1CCN(c2ncccn2)CC1 [CBK107280] | 77.4352% |
| CN(C)S(=O)(=O)N1CCN(c2ccc([N+](=O)[O-])c(NC3CC3)c2)CC1 [CBK265158] | 130.079% |
| CC(=O)c1ccc(CN2CCN(S(=O)(=O)c3ccc(C(F)(F)F)cc3Cl)CC2)cc1 [CBK063072] | 89.7461% |
| COc1cc(C(C)=O)ccc1OCCCCN1CCOCC1 [CBK269713C] | 110.526% |
| Cc1ccc(NC(=O)c2cc([N+](=O)[O-])ccc2NCCN2C(=O)c3ccccc3C2=O)cc1 [CBK267159] | 126.231% |
| COc1cc2c(cc1NC(=O)CSc1nc3ccccc3o1)oc1ccccc12 [CBK265154] | 100% |
| Cc1ccc2[nH]cc(CCN3CCC4(C3)OCCc3c4[nH]c4ccccc34)c2c1 (stereo not shown) [CBK061790] | 70.2465% |
| COc1ccccc1CC(=O)N1CC[C@@H]2NC(=O)[C@H]3C[C@H](NC(=O)C4CC4)CN3C(=O)[C@H]21 [CBK289267] | 121.144% |
| Cc1cc(C)c2cc(C(=O)N(C)CC3(C)COC3)[nH]c2c1 [CBK281711] | 131.84% |
| Cc1ccc(-c2nnc(CNC(=O)c3ccc(F)c(F)c3)o2)s1 [CBK284647] | 140.217% |
| Cc1cc(C)nc(Nc2ncc(O)n2-c2ccccc2)n1 [CBK287914] | 120.403% |
| O=[N+]([O-])c1cccc(S(=O)(=O)Nc2ccc(C(O)(C(F)(F)F)C(F)(F)F)cc2)c1 [CBK062093] | 67.1488% |
| CC(C)c1nsc(NS(=O)(=O)c2cccc(C(F)(F)F)c2)n1 [CBK038881] | 92.4722% |
| Cc1cnc2[nH]c(C3CCN(C(=O)c4scnc4C)CC3)cc2c1 [CBK284753] | 154.146% |
| CN(C)CCN(C)c1cncc(-c2cccc(/C=C/C(=O)O)c2)n1 [CBK065451] | 119.15% |
| Cc1ccc2c(CSc3nc(N)cc(N)n3)cc(=O)oc2c1C [CBK297519] | 164.755% |
| O=C(CO)N1CC2(CCN(CCc3cccc4ccccc34)CC2)c2ccccc21 [CBK137003] | 106.992% |
| CNS(=O)(=O)c1c(C)nn(-c2ccccc2)c1C [CBK086715] | 87.3215% |
| CC(C)(C)c1ccc(-c2cc(C3CCNCC3)n[nH]2)cc1 [CBK270240] | 95.358% |
| FC(F)(F)C1(NC2(C(Cl)(Cl)Cl)Oc3ccccc3O2)Oc2ccccc2O1 [CBK265544] | 114.315% |
| CS(=O)(=O)Nc1ccc2c(ccn2Cc2ccccc2)c1 [CBK159527] | 89.2993% |
| O=C(C(Cc1ccccc1)c1ccccc1)N1CCC2(CCN(CCCCOc3ccccc3)C2)C1 (stereo not shown) [CBK160643] | 119.489% |

Source: article PMC12040169 (PLOS Biology, 2025)
